Measurements reported in PubChem BioAssay AID1259308 (NCATS, 2017)

- Assay: 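Knock-downs that increase output of a recombinant reporter protein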 (primary screen)
- Cell system: human HEK293 embryonic kidney cells stably expressing firefly luciferase (HEK-CMV-Luc2-Hygro)
- Knock-down reagent: single siRNA against human genes, 0.8 pmol siRNA per well
- Duration: 72 h
- Measured: 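Luciferase light (ONE-Glo) measured on one replicate plate set and viability (CellTiter-Glo) on the other, scaled to a negative control siRNA, with robust z-scores and luciferase per cell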
- Direction: total luciferase, z-score and total luciferase, % of control: higher = more reporter protein produced; luciferase per cell, z-score: higher = more reporter output per viable cell; viable cells, % of control: higher = more viable cells
- Hit rule: 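An siRNA counts as active if its total luciferase robust z-score exceeds 3; genes with two or more such siRNAs out of three were retested with fresh siRNAs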
- Meaning of the calls: active = raised luciferase; inactive = no rise
The whole screen tested about 59,000 reagents; below is a part drawn at random. About 1,510 of them (2.6%) count as active. 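Calls use total luciferase alone and ignore viability, so some active siRNAs may act by altering cell number.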 Entries without a mark were called inactive.

no.	target	PubChem SID	total luciferase, z-score	total luciferase, % of control	luciferase per cell, z-score	viable cells, % of control
1	TAF7 (TATA-box binding protein associated factor 7)	SID160717664	1.5	112	1.12	93
2	TAF7 (TATA-box binding protein associated factor 7)	SID160717665	0.825	98.3	0.657	92.4
3	TAF7 (TATA-box binding protein associated factor 7)	SID160717667	0.799	97.8	0.987	84.2
4	ELK3 (ETS transcription factor ELK3)	SID160759935	0.47	91.2	0.578	87.6
5	ELK3 (ETS transcription factor ELK3)	SID160759946	1.56	113	1.31	89.4
6	ELK3 (ETS transcription factor ELK3)	SID160759956	-2.04	41.2	-1.44	67.3
7	ZNF878 (zinc finger protein 878)	SID160773110	0.817	98.1	0.484	96.5
8	ZNF878 (zinc finger protein 878)	SID160773113	-0.142	79.1	-0.17	92.4
9	ZNF878 (zinc finger protein 878)	SID160773114	2.3	128	1.48	96.5
10	PTPN9 (protein tyrosine phosphatase non-receptor type 9)	SID160715370	-1.2	58.1	-0.355	71.3
11	PTPN9 (protein tyrosine phosphatase non-receptor type 9)	SID160715371	0.684	95.5	0.34	97.6
12	PTPN9 (protein tyrosine phosphatase non-receptor type 9)	SID160715372	-0.851	65	-0.98	93.9
13	ADGRE5 (adhesion G protein-coupled receptor E5)	SID160739865	2.49	131	2.9	68.4
14	ADGRE5 (adhesion G protein-coupled receptor E5)	SID160739876	-1.35	55.1	-1.43	89.7
15	ADGRE5 (adhesion G protein-coupled receptor E5)	SID160739885	1.31	108	0.906	95
16	NFYB (nuclear transcription factor Y subunit beta)	SID160778048	1.26	107	2.31	65
17	NFYB (nuclear transcription factor Y subunit beta)	SID160778049	1.61	114	1.49	86
18	NFYB (nuclear transcription factor Y subunit beta)	SID160778050	-1.52	51.7	-0.393	64
19	EN2 (engrailed homeobox 2)	SID160760337	-0.0467	81	0.195	85.9
20	EN2 (engrailed homeobox 2)	SID160760347	1.64	114	1.56	84.8
21	EN2 (engrailed homeobox 2)	SID160760357	-0.84	65.2	-1.81	117
22	PRPH2 (peripherin 2)	SID160715767	3.16 (active)	145	3.19	69.9
23	PRPH2 (peripherin 2)	SID160715768	-0.943	63.1	-0.765	86.3
24	PRPH2 (peripherin 2)	SID160715769	-0.546	71	-1.32	112
25	ASAH1 (N-acylsphingosine amidohydrolase 1)	SID160763276	0.846	98.7	1.19	80.6
26	ASAH1 (N-acylsphingosine amidohydrolase 1)	SID160763376	-0.448	73	-0.646	96.7
27	ASAH1 (N-acylsphingosine amidohydrolase 1)	SID160763480	-0.0842	80.2	-0.317	97.4
28	ZNF91 (zinc finger protein 91)	SID160719127	0.399	89.8	0.733	82.8
29	ZNF91 (zinc finger protein 91)	SID160719128	-1.83	45.4	-2.35	94.4
30	ZNF91 (zinc finger protein 91)	SID160719129	-0.944	63.1	-1	91.8
31	CNTD1 (cyclin N-terminal domain containing 1)	SID160756246	-0.326	75.4	-0.0679	85.8
32	CNTD1 (cyclin N-terminal domain containing 1)	SID160756247	0.684	95.5	0.474	94.2
33	CNTD1 (cyclin N-terminal domain containing 1)	SID160756248	-1.55	51.1	-1.55	86
34	TARM1 (T cell-interacting, activating receptor on myeloid cells 1)	SID160733425	-2.16	38.9	-1.77	69.2
35	TARM1 (T cell-interacting, activating receptor on myeloid cells 1)	SID160768077	0.838	98.5	0.75	90.4
36	TARM1 (T cell-interacting, activating receptor on myeloid cells 1)	SID160768078	-1.6	50.1	-1.14	75.7
37	PNMA1 (PNMA family member 1)	SID160721788	0.0422	82.7	-0.477	105
38	PNMA1 (PNMA family member 1)	SID160721789	0.666	95.1	0.428	95
39	PNMA1 (PNMA family member 1)	SID160721790	2.04	123	1.5	92.3

Sorted by “total luciferase, % of control” (high to low): 3 of the entries above
target	PubChem SID	total luciferase, z-score	total luciferase, % of control	luciferase per cell, z-score	viable cells, % of control
PTPN9 (protein tyrosine phosphatase non-receptor type 9)	SID160715371	0.684	95.5	0.34	97.6
PTPN9 (protein tyrosine phosphatase non-receptor type 9)	SID160715372	-0.851	65	-0.98	93.9
PTPN9 (protein tyrosine phosphatase non-receptor type 9)	SID160715370	-1.2	58.1	-0.355	71.3
